Results are given in words; binding and its absence hold for the method and conditions named. Some entries that bind do so weakly or less than the wild type.
Molecular target: Human GUCY2C full length (SEQ ID NO: 224), recombinant protein (human) (UniProt P25092)
Experiment: SPR, IgG captured by anti-human Fc

Chains of the proteins cited; added tags and fusions are not shown. Lines headed by an entry give the natural chain unless they say otherwise; changes in a name come on top.
UniProt P25092: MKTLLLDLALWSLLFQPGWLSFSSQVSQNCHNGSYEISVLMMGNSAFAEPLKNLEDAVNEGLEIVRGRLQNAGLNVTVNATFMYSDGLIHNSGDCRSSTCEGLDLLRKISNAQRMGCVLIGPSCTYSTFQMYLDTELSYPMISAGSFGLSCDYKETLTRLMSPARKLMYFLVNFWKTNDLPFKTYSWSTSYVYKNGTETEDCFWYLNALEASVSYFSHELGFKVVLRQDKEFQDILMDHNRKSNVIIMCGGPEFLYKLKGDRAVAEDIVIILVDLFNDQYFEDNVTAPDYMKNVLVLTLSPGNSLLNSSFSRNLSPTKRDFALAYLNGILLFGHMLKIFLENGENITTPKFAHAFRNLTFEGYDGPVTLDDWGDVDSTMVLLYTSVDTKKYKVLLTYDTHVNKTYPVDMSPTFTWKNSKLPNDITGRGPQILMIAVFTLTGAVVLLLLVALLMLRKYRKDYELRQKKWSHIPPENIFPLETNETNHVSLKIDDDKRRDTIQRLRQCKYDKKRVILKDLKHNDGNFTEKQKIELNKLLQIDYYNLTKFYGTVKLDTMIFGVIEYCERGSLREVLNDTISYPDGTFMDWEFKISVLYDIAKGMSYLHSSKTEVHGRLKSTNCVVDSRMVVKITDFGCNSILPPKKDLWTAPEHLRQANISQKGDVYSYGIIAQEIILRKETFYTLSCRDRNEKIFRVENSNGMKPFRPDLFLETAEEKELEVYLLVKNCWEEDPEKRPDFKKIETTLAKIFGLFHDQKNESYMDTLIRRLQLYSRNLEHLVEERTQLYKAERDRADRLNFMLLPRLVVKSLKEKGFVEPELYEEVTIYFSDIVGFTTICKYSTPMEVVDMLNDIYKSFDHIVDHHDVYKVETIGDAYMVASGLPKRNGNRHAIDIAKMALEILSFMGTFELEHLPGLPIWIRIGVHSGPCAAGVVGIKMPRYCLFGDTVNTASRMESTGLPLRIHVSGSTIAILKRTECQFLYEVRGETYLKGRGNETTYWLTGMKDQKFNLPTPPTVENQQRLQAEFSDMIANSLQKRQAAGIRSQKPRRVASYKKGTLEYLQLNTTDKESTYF

- binding: binds
B1: GUCY2C-0486 (antibody, human IgG1, kappa, V domains shown)
VH: EVQLVESGGGLVQPGGSLRLSCAASGYTFTSYWMHWVRQAPGKGLEWIGEIKPSNGLTNVHEKFKNRFTISVDKAKNSAYLQMNSLRAEDTAVYYCTRTITTTEGYWFFDVWGQGTLVTVSS
VL: DIQLTQSPSSLSASVGDRVTITCRASESVDYYGSSLLQWYQQKPGKAPKLLIYAASKLASGVPSRFSGSGSGTDFTLTISSLQPEDFATYYCQQTRKAYTFGQGTKLEIKR
